The target of the experiment is Foxo1 lacking the forkhead domain (NanoBiT deletion construct) (mouse). Nature of the experiment: split reporter.

This is an account of results in paper doi:10.1101/2023.08.09.552644.

Results are given in words; binding and its absence hold for the method and conditions named. Binding seen in cells or lysates may run through a third protein. Binding calls can cover weak binding; strength is not graded here.

B1: Mkl2 (NanoBiT construct) (protein, UniProt P59759 1-1080)
chain: MIDSSKKQPQGFPEILTAEDFEPFKEKECLEGSNQKSLKEVLQLRLQQRRTREQLVDQGIMPPLKSPAAFHEQIKSLERARTENFLKHKIRSRPDRSELVRMHILEETFAEPSLQATQMKLKRARLADDLNEKIAQRPGPMELVEKNILPVDSSVKEAIIGVVKEDYPHTHGEFSFDEDSSDALSPDQPASQESQGSAASPSEPKVSASPPPVTASTPAQFTSVSPAVPEFLKTPLTADQPPTRSTAPVLPTNTVSSAKSGPMLVKQSHPKNPNDKHRSKKCKDPKPRVKKLKYHQYIPPNQKGEKSEPQMDSNYARLLQQQQLFLQLQILSQQQQQQQQQHYNYQTILPAPIKTDKNSSSGSNSGSSSSMPARRPGPLPSSLDDLKVSELKTELKLRGLPVSGTKPDLIERLKPYQEVTSSNLATGSIVAVSSATIVTSNPEVTVALPVTTLHNAVTSSVSTFKADLALPATSSVPHVENAHSPLPISPSPSEQSSLSTDDTNMTDTFTEIMTMMSPSQLLCSSPLRVVSHDDSLSPSSSTLSTLELDAAEKDRKLQEKEKQIEELKRKLEQEQKLVEVLKMQLEVEKRGQQRPPDPQPSDPPHPFNTSDPKHGSVGSSIKDEASLPDCSSPQQPITVPGHSVGQPISTGSQTLVAKKTVVVKQEVPMAQAEQQNVVSQFYLSSQGQPPALVAQPQALLTTQTTQLLLPVSIQGSNVTSVQLPVGSLQLQTPAQGRVQAQPHVAAATQVPAAALPSALTSALPQKQEAFPQHVLGQPQPVRKVFTNSAPNTVLQYQRQPGPTNQQPFVSKTSNPALQSRTAPLAPLQNGPSLASKPSSPPPPQQFVVQHSLFATPITKTKDPPRYEEAIKQTRSTQPALPEVSSVHSQQMDDLFDILIKSGEISFPIKEEPSPISKMKPVTASITTMPVNTVVSRPPPQVQIAPPVSLEPVNSLSASLENQLEAFLDGTLPSATDTGPLQNSSEDRESFSLIEDLQNDLLSHSSMLYQSHSPMETSEAQLVSGTPCLSLDLSDSNLDNMEWLDITMPTTSSGLTPLSTTAPSMFSADFLDPQDLPLPWD
Turning to B1, the binding entry is “binds”.
